This passage reports binding results from PMC6697728.

The chains behind the UniProt entries cited, without tags or fusion partners. Residues count along the entry.
UniProt P29323, residues 19-1055: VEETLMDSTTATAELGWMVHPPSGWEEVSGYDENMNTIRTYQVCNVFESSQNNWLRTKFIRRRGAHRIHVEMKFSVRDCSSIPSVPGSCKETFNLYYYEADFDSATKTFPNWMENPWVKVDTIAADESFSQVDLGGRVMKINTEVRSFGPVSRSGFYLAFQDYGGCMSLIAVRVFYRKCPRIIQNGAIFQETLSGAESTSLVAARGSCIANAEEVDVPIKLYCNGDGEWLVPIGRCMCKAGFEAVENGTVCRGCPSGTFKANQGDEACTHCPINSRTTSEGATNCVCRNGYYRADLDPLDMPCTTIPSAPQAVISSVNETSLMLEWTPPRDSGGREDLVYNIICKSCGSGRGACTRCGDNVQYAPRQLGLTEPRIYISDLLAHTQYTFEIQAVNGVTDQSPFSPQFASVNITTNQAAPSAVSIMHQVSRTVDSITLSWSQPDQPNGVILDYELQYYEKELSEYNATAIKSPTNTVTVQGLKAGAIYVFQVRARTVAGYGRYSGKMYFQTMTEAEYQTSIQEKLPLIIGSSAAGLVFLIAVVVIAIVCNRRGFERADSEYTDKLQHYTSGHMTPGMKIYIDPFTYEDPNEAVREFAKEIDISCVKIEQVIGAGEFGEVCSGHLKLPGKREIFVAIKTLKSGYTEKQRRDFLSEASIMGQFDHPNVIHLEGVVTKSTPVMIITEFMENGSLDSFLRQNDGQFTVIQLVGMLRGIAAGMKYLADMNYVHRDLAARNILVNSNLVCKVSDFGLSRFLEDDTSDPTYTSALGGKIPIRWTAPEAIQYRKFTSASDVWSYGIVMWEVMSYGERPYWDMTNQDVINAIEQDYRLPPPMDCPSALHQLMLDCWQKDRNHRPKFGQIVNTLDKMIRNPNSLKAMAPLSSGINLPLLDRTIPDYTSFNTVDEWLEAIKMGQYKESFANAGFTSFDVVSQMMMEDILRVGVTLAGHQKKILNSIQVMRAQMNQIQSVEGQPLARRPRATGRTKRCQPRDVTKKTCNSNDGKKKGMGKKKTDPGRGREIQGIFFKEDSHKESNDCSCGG
UniProt Q9H3S7: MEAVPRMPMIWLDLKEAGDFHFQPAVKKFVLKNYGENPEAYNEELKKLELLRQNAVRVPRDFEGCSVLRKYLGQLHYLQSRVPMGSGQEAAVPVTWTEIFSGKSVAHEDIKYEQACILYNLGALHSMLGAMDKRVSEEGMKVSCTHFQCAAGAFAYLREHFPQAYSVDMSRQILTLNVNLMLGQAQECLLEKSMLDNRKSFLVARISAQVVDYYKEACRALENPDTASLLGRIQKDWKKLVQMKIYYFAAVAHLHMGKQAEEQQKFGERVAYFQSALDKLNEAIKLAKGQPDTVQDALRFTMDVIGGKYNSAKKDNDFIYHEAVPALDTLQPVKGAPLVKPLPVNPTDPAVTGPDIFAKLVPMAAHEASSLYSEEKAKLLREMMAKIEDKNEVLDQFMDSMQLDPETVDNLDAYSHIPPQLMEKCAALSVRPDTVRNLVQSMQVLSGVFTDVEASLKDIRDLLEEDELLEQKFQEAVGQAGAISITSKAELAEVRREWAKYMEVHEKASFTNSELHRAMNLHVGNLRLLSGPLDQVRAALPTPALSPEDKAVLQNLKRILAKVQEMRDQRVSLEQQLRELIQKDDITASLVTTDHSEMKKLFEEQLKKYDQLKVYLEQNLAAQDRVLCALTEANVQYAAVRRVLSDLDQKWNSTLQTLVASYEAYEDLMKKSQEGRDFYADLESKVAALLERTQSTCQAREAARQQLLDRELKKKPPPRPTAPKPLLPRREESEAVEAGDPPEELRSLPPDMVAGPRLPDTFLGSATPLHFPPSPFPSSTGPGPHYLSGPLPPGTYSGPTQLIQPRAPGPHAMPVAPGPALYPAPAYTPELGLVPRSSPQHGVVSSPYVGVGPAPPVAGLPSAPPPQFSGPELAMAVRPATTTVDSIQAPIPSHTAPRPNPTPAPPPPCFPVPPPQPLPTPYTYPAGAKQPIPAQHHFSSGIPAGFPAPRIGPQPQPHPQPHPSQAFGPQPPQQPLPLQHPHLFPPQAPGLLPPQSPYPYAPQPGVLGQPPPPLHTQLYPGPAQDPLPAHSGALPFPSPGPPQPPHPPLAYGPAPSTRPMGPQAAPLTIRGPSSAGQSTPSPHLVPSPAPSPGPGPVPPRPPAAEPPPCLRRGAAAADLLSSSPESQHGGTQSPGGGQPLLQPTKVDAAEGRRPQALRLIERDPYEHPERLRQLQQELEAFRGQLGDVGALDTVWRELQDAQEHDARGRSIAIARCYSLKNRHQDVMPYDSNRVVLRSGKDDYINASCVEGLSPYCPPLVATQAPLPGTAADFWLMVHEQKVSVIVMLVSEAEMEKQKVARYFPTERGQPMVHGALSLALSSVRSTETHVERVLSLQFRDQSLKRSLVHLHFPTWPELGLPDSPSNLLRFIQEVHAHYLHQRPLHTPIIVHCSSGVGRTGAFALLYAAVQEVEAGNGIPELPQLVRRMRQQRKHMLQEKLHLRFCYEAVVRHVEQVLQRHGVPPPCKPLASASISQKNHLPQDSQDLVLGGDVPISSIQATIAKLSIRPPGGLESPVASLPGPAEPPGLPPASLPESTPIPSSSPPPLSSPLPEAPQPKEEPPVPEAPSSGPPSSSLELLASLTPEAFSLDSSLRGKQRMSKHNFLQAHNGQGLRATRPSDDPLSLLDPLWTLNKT

No constants are given. Whether binding was seen depends on the method and setting. In cells and extracts the contact can be indirect. Some entries that bind do so weakly or less than the wild type.

Experiment [1] concerns the target EphB2-BirA*-FLAG (UniProt P29323). The experiment can be described thus: co-IP; EphB2-OE HEK293 transfected with HD-PTP-HA, stimulated 15 min with 1.5 ug/mL pre-clustered eB2 at 37 C; CHAPS lysis buffer; anti-FLAG beads 3 h at 4 C; blot for HA.
Experiment [2] has the same target. The experiment can be described thus: condition: only without ephrin-B2-Fc stimulation (Fc or medium); co-IP; as a2 but cells treated with Fc (1.5 ug/mL, pre-clustered) or medium instead of eB2.

Consider HD-PTP-HA (from UniProt Q9H3S7 1-1636), for which the binding result with EphB2-BirA*-FLAG [1] is “binds”; with EphB2-BirA*-FLAG [2] it was “no binding”.
